PubChem BioAssay AID1224828 – NIAID – 2016

Test: 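Find genes required for NF-kappaB p65 moving into the nucleus after LPS in mouse macrophages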 (primary screen)
Cells: mouse RAW264.7 G9 macrophage reporter cells (GFP-p65, Tnf promoter-mCherry)
Reagent: siRNA pool against mouse genes, 100 nM
Timing: 2 days siRNA transfection, then 40 min LPS before fixation
Conditions: LPS (Salmonella minnesota R595) at 10 ng/ml
Detection: 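Imaged p65 nuclear translocation ratio, normalised to the plate median, converted to robust z-scores and averaged across two replicates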
Direction: p65 translocation robust z-score: higher = more nuclear NF-kappaB p65 after LPS than the plate median; nuclear/cytoplasmic p65 ratio: higher = more nuclear NF-kappaB p65
Active means: 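Active if robust z is above 3.3 (negative regulators) or below -1.56, the Tlr4 control median (positive regulators); activity score 50 or more; control wells not called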
Meaning of the calls: active = hit (p65 shift raised or lowered); inactive = no clear change
Here is one part, drawn at random, of about 17,000 reagents. In the full data, 762 (4.5%) got an active call. 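Active calls include both raised and lowered p65 entry, mostly lowered; wells with fewer than 50 cells lack a z-score.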 The raw values are shown without normalisation.

What did the screen give for Or8b53 (GeneID 258783)?
p65 translocation robust z-score: 0.22; nuclear/cytoplasmic p65 ratio, rep 1: 1.52; nuclear/cytoplasmic p65 ratio, rep 2: 1.23; low cell count flag: enough cells to score; outcome: inactive

With Pcmtd2 (GeneID 245867), what was measured?
p65 translocation robust z-score: 0.26; nuclear/cytoplasmic p65 ratio, rep 1: 1.45; nuclear/cytoplasmic p65 ratio, rep 2: 1.44; low cell count flag: enough cells to score; outcome: inactive

Which result is listed for Nkx2-3 (GeneID 18089)?
p65 translocation robust z-score: -0.37; nuclear/cytoplasmic p65 ratio, rep 1: 1.41; nuclear/cytoplasmic p65 ratio, rep 2: 1.36; low cell count flag: enough cells to score; outcome: inactive

Which result is listed for Tdrd1 (GeneID 83561)?
p65 translocation robust z-score: -0.35; nuclear/cytoplasmic p65 ratio, rep 1: 1.29; nuclear/cytoplasmic p65 ratio, rep 2: 1.18; low cell count flag: enough cells to score; outcome: inactive

What did the screen give for Fbxo32 (GeneID 67731)?
p65 translocation robust z-score: -1.55; nuclear/cytoplasmic p65 ratio, rep 1: 1.38; nuclear/cytoplasmic p65 ratio, rep 2: 1.16; low cell count flag: enough cells to score; outcome: inactive

What is on record for Fbxl7 (GeneID 448987)?
p65 translocation robust z-score: -0.23; nuclear/cytoplasmic p65 ratio, rep 1: 1.55; nuclear/cytoplasmic p65 ratio, rep 2: 1.5; low cell count flag: enough cells to score; outcome: inactive

For Clcn5 (GeneID 12728), what was measured?
p65 translocation robust z-score: -0.94; nuclear/cytoplasmic p65 ratio, rep 1: 1.34; nuclear/cytoplasmic p65 ratio, rep 2: 1.26; low cell count flag: enough cells to score; outcome: inactive

With Tbl2 (GeneID 27368), what does the deposit list?
nuclear/cytoplasmic p65 ratio, rep 1: 1.25; nuclear/cytoplasmic p65 ratio, rep 2: 1.09; low cell count flag: fewer than 50 cells per well; well left out of scoring; outcome: inactive

With Or1j10 (GeneID 258949), what was measured?
p65 translocation robust z-score: -1.81; nuclear/cytoplasmic p65 ratio, rep 1: 1.3; nuclear/cytoplasmic p65 ratio, rep 2: 1.22; low cell count flag: enough cells to score; outcome: active

Which result is listed for Ccdc7b (GeneID 75453)?
p65 translocation robust z-score: 0.88; nuclear/cytoplasmic p65 ratio, rep 1: 1.45; nuclear/cytoplasmic p65 ratio, rep 2: 1.53; low cell count flag: enough cells to score; outcome: inactive

How did the screen score Dsg1b (GeneID 225256)?
nuclear/cytoplasmic p65 ratio, rep 1: 1.25; nuclear/cytoplasmic p65 ratio, rep 2: 1.26; low cell count flag: fewer than 50 cells per well; well left out of scoring; outcome: inactive

For Sebox (GeneID 18292), what does the deposit list?
p65 translocation robust z-score: 1.18; nuclear/cytoplasmic p65 ratio, rep 1: 1.96; nuclear/cytoplasmic p65 ratio, rep 2: 1.64; low cell count flag: enough cells to score; outcome: inactive

2 consecutive reagents from above:
Tbl2 (GeneID 27368): nuclear/cytoplasmic p65 ratio, rep 1 = 1.25; nuclear/cytoplasmic p65 ratio, rep 2 = 1.09; low cell count flag = fewer than 50 cells per well; well left out of scoring; outcome = inactive
Or1j10 (GeneID 258949): p65 translocation robust z-score = -1.81; nuclear/cytoplasmic p65 ratio, rep 1 = 1.3; nuclear/cytoplasmic p65 ratio, rep 2 = 1.22; low cell count flag = enough cells to score; outcome = active

The results go on:
With Dnm1 (GeneID 13429), what does the deposit list?
p65 translocation robust z-score: -2.44; nuclear/cytoplasmic p65 ratio, rep 1: 1.23; nuclear/cytoplasmic p65 ratio, rep 2: 1.06; low cell count flag: enough cells to score; outcome: active

How did the screen score Hgsnat (GeneID 52120)?
p65 translocation robust z-score: 1.01; nuclear/cytoplasmic p65 ratio, rep 1: 1.79; nuclear/cytoplasmic p65 ratio, rep 2: 1.62; low cell count flag: enough cells to score; outcome: inactive

With Bloc1s6 (GeneID 18457), what does the deposit list?
nuclear/cytoplasmic p65 ratio, rep 1: 1.18; nuclear/cytoplasmic p65 ratio, rep 2: 1.07; low cell count flag: fewer than 50 cells per well; well left out of scoring; outcome: inactive

With Hdac10 (GeneID 170787), how do the results read?
p65 translocation robust z-score: -0.17; nuclear/cytoplasmic p65 ratio, rep 1: 1.46; nuclear/cytoplasmic p65 ratio, rep 2: 1.31; low cell count flag: enough cells to score; outcome: inactive

What did the screen give for Coa7 (GeneID 69893)?
nuclear/cytoplasmic p65 ratio, rep 1: 1.36; nuclear/cytoplasmic p65 ratio, rep 2: 1.48; low cell count flag: fewer than 50 cells per well; well left out of scoring; outcome: inactive

For Med29 (GeneID 67224), what does the deposit list?
nuclear/cytoplasmic p65 ratio, rep 1: 1.71; nuclear/cytoplasmic p65 ratio, rep 2: 1.02; low cell count flag: fewer than 50 cells per well; well left out of scoring; outcome: inactive

How did the screen score Dnajb1 (GeneID 81489)?
p65 translocation robust z-score: 1.95; nuclear/cytoplasmic p65 ratio, rep 1: 1.75; nuclear/cytoplasmic p65 ratio, rep 2: 1.59; low cell count flag: enough cells to score; outcome: inactive

Which result is listed for Nprl3 (GeneID 17168)?
p65 translocation robust z-score: 0.57; nuclear/cytoplasmic p65 ratio, rep 1: 1.79; nuclear/cytoplasmic p65 ratio, rep 2: 1.64; low cell count flag: enough cells to score; outcome: inactive

For Tfcp2l1 (GeneID 81879), what does the deposit list?
p65 translocation robust z-score: 2.15; nuclear/cytoplasmic p65 ratio, rep 1: 1.74; nuclear/cytoplasmic p65 ratio, rep 2: 1.43; low cell count flag: enough cells to score; outcome: inactive
